This passage reports binding results from patent US20050118729A1 (published 2005).

Chains of the proteins cited; added tags and fusions are not shown. Lines headed by an entry give the natural chain unless they say otherwise; changes in a name come on top.
UniProt P13612: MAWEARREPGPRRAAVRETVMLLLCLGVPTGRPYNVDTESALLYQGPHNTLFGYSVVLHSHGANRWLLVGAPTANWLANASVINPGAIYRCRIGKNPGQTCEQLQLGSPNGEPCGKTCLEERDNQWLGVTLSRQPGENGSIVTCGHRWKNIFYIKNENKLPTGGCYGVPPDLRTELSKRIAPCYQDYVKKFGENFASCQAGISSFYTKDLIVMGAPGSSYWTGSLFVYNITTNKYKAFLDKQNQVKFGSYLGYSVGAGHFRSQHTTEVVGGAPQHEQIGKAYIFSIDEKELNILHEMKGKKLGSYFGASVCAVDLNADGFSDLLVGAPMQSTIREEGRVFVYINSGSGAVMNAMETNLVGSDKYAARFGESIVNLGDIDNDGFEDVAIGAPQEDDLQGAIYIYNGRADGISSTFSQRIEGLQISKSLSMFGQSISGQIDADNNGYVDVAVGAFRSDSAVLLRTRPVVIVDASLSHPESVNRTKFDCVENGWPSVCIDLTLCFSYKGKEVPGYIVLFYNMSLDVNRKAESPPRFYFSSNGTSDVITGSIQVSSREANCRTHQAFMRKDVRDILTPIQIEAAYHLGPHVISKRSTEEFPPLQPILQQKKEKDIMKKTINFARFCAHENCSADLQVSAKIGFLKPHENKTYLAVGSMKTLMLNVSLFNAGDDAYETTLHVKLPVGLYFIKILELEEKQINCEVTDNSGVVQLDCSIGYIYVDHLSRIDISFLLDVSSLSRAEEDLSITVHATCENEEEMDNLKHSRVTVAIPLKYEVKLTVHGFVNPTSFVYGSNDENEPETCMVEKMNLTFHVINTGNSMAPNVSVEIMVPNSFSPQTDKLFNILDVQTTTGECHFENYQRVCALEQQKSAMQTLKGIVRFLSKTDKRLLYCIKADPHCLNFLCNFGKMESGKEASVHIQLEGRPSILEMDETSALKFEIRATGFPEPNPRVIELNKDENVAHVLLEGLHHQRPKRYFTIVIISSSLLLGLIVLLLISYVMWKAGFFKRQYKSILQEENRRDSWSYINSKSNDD
UniProt Q06851: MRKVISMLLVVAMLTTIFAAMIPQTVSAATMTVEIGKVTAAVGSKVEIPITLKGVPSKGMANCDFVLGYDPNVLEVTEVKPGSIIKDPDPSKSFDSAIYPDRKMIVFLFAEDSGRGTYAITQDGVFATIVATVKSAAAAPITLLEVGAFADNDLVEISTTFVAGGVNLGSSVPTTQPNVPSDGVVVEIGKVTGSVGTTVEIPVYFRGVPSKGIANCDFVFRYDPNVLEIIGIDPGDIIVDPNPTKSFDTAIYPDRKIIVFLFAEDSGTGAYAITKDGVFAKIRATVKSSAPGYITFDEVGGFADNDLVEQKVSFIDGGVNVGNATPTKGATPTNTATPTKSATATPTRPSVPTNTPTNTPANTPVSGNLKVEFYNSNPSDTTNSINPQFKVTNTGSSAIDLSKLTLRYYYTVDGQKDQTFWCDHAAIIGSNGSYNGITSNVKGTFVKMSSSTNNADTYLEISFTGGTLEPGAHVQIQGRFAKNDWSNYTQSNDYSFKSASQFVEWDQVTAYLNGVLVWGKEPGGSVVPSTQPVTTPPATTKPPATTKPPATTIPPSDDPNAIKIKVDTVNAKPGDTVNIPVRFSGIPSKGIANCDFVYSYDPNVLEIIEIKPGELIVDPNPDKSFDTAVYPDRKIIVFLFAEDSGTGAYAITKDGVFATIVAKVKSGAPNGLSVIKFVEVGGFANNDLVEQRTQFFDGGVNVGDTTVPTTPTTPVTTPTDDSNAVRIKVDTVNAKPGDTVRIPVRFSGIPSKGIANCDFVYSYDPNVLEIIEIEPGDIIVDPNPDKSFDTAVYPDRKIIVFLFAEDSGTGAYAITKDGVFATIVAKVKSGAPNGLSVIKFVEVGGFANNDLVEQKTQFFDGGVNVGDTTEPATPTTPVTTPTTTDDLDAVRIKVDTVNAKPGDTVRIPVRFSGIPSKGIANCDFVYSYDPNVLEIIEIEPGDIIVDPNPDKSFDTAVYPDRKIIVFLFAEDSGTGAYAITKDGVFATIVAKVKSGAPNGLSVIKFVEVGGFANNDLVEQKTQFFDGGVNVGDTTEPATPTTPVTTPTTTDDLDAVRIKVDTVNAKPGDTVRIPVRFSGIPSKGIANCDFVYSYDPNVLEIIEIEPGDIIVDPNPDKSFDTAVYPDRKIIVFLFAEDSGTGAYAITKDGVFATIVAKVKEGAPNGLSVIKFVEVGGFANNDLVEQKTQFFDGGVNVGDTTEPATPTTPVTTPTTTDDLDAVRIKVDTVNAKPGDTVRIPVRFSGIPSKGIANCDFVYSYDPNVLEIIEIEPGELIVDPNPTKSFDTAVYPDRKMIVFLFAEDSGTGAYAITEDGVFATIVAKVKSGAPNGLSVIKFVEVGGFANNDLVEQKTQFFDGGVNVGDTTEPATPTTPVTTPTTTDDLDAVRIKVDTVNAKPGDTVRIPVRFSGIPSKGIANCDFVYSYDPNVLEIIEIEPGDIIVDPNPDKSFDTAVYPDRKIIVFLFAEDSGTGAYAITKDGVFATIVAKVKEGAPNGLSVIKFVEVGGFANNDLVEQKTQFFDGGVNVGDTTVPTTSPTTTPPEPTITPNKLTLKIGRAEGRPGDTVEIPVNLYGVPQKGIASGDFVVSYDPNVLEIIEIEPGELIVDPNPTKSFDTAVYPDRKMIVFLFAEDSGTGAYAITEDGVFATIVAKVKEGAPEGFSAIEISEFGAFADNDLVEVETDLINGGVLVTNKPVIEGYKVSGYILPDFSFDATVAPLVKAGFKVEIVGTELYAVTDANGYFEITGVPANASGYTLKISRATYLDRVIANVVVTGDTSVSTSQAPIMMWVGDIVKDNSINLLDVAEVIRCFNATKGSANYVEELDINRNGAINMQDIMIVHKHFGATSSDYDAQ

No constants are given. Whether binding was seen depends on the method and setting. Some entries that bind do so weakly or less than the wild type.

In this assay the target is T1, α4β1 integrin expressed on Jurkat cells (human, UniProt P13612 34-1032; P05556 21-798).
T1 construct: whole, on cells; Cells labeled with a fluorescent dye (Cyto 82); also called receptor recognizing the CS1 peptide
The assay is described as follows: cell adhesion of labeled Jurkat cells on microarray.

Consider “ZEPHYRIN-CS1 (from UniProt Q06851 361-527)”, for which the binding entry is listed as “binds”.
